From PMC5120349, “Reconstitution of Targeted Deadenylation by the Ccr4-Not Complex and the YTH Domain Protein Mmi1”
Read-outs that look alike come from different tables or passages of the source. Results are given in words; binding and its absence hold for the method and conditions named. In cells and extracts the contact can be indirect. A yes stands for co-enrichment or nearness to the bait. Other partners may have been found. Tags and fused reporters may be left off the sequences shown. Values belong to the molecule of their own block, whether it stands above or below them.

Amino acid sequences for entries named in this document (tags omitted).
UniProt P87112: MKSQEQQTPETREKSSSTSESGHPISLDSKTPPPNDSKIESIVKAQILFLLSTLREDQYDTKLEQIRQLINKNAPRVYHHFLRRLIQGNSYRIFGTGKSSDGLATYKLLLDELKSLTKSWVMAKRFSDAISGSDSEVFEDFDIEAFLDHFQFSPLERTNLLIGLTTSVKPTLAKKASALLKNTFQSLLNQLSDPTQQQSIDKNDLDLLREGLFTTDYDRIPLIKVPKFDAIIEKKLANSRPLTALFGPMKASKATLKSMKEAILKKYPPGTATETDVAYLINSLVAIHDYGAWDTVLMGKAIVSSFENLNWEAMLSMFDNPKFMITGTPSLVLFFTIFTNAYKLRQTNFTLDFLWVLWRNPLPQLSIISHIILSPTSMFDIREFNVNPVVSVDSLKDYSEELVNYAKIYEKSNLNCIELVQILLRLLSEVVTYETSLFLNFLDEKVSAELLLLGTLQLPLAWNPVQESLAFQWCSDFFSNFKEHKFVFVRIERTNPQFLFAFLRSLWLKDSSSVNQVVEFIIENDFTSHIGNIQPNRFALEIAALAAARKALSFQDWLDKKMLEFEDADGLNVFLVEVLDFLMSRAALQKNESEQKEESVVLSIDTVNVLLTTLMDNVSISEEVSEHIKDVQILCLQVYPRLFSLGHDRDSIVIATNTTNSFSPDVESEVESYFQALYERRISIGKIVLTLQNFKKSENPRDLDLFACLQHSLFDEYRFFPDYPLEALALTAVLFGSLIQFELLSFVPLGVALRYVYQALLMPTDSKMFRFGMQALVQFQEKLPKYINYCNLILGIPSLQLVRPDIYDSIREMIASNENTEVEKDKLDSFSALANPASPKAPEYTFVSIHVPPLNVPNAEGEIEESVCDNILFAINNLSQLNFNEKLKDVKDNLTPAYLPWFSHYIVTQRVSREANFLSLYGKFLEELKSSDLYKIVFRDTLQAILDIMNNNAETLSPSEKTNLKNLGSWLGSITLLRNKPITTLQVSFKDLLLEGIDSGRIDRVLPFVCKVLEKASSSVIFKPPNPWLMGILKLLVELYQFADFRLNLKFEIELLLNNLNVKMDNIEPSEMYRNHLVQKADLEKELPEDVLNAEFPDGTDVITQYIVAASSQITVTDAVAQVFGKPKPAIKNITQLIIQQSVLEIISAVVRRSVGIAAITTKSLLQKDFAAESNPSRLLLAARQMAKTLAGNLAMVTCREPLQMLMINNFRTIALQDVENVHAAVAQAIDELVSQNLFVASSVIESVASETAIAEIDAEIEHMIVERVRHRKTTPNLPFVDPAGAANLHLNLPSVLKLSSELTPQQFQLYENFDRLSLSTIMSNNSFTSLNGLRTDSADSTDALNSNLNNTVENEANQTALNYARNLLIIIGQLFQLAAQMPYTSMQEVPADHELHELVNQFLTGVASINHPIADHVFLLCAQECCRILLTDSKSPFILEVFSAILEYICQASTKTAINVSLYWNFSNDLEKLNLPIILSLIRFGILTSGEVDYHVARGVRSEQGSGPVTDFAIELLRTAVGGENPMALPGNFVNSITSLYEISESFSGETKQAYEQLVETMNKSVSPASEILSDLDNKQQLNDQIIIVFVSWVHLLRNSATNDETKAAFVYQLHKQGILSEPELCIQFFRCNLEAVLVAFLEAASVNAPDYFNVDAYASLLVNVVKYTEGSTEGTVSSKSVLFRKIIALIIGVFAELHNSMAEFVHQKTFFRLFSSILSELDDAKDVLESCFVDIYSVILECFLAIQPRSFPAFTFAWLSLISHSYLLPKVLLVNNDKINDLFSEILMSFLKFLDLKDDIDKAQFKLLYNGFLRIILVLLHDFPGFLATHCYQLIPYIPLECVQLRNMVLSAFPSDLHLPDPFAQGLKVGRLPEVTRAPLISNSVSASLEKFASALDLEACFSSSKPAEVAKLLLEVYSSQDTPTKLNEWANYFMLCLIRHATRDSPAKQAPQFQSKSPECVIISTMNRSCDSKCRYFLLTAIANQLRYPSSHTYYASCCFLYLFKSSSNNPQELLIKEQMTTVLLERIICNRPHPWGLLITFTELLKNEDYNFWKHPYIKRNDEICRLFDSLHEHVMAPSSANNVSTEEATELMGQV

Assays:
[1] = target: T1, Rcd1 (TAP-tagged, endogenous, S. pombe) (S. pombe (endogenous in S. pombe)) (UniProt Q92368); assay: affinity purification with mass spectrometry; tandem affinity purification of the endogenous complex from an S. pombe strain with a C-terminal TAP tag on rcd1; SDS-PAGE, Coomassie blue, bands identified by mass spectrometry; Mmi1 interaction not sensitive to RNase treatment
T1 sequence: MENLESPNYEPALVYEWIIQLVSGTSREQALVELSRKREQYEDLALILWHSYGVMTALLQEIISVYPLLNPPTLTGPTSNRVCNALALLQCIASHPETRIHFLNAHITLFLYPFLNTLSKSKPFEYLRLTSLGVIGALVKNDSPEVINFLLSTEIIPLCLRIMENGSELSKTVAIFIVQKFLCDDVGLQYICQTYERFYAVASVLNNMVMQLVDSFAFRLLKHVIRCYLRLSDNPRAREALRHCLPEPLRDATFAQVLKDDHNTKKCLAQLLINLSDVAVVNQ

[2] = target: T2, Caf40 (TAP-tagged, endogenous, S. cerevisiae) (S. cerevisiae (endogenous in S. cerevisiae)) (UniProt P53829); assay: affinity purification with mass spectrometry; tandem affinity purification of the endogenous complex from an S. cerevisiae strain with TAP-tagged Caf40; SDS-PAGE, Coomassie blue, bands identified by mass spectrometry
T2 sequence: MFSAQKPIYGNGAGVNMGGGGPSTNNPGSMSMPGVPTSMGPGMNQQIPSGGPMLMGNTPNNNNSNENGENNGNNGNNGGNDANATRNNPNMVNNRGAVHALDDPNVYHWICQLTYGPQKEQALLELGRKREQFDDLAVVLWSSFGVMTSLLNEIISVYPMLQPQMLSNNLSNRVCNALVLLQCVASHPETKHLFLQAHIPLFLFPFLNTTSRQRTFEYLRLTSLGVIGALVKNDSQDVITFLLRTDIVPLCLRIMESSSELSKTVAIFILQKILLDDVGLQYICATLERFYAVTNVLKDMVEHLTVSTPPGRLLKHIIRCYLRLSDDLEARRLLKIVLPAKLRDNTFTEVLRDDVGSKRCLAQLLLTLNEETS

[3] = target: T1, Rcd1 (TAP-tagged, endogenous, S. pombe) (S. pombe (endogenous in S. pombe)); assay: affinity purification with mass spectrometry; tandem affinity purification of the endogenous complex from an S. pombe strain with a C-terminal TAP tag on rcd1; SDS-PAGE, Coomassie blue, bands identified by mass spectrometry; Mmi1 interaction not sensitive to RNase treatment; remark: listed apart in the source

binding [1]: binds
Molecule: Not1 (endogenous, S. pombe) (from UniProt P87112 1-2100)

binding [1]: binds
Molecule: Not4 ortholog (endogenous, S. pombe)

binding [2]: binds
B1: Caf130 (endogenous, S. cerevisiae) (protein, UniProt P53280 1-1122)
chain: MTKKKAATNYAERQNLASEDSSGDSVHFKDFIPLQELLKDKNYVPSVENLEKILYNETMFNDQKICSNLLLEALIITLFTTISGKSALRLIQTSSLKERKSWAQSFENNSSSYASIVLSWKDNDILLLKFLRFLLANKTAPLQINRYNLPEYKLPLSFLIVSKITIPSILLNETYNLLKDYLYSITGRIESLISCSSTFDKPALVVRKILKDYNRMIECRNFYFWYSFNAENRVNLTFSDNISLLMENDEGNAGSGLDDSRFDHQKQPREAIMGRTINDQEQIYSFELNQDGTLEIPNVMEHSLLRHELLFKILNLTTVLTPLLELQFSTLCGLVDPLMQPTPNDKHIISIDFLFQLFLGLMSQSIKTSQEHNDHYDWKFYMCFNMQKIIDATMLRLNCFDFDILNSVNNTDNAVHWKTQLHRWLPHGLNTQDLELLYMIDILAVYTIYKLYEKIPIQLNPFLFSLISLWKNLSCVILLALEIDRIEEENGTYETPLMVRATIRGAAALRSVIATVLNGLVKNNDHDFKHESLNTFMSPYGRKLCHGALYADLRSHTASLLALGASIEDVTDLFADLQSGDRFDEDIRYMFDYECEDYDESFSESDHGGLDESVVNPTEKIASGSNNVFFRRRCNCIFNDDKLVAEDGANEAFGSTNSENVEGAMHNNRNAVHNATTATSDHVVTSPNPLSVRSRSTFEFDYSGEDWRDVPRDFNMYYSPSYSFIHEPKLDVIFSLTLRGATEKLNKEESILLVRSVASCVRNEQDQMILADLESNFSASINGDVEGEGNTKMSKIDNEDLRRTTPDDIYEIWSEESAFERMLNVNHDVAWRLMDEMLMCTGYRRILIWFLTHLELKHSLIYYVFELIMGLRGKPFSGEASDQDKKDDMIYEILKKKQKNEDASGLPFSRQGPIVLSDIETKMLLQEFFMNAAIFLSSKNNEEENEDGEKISLYSLGLVRLICYMVQTLIANDKFFFTKSECTFELQTLLMTWIGILPEAKDLFFKIKTRLAMEEEDSADTMQHEGRKNSDIEKKLNAKPASELNLKLLNLFPSKPANKDDSSPINTLRSFIADYSFDTQVNPPGRRVVFYDGKILPLPKADKPIPLHEYITLAELDVGDSE

binding [3]: binds
B2: Mmi1 (meiotic mRNA interceptor 1; endogenous, S. pombe) (protein, UniProt O74958 1-488)
chain: MSNTNFSTSRSSKSIPELPNLEALRSLWPPPSLNESGDTRSVWTTHTGEPVASSVLSTSGSNNFSSPLKRPAPESHDAPIGRRLMVDDPRLIKHGKYDFSRHCTDYGHSYEWPYFRSLRRESMLYHTSGSYPESQPPYSSYSTDAPHYYHAGSESSAYYDSRSRLHGIQPPPKRRTLSPPPRRLADPVVVGSSRYVEEEVYRRPPYTLASEVPSSASAYQAGYSSYPVRSSPQLSHEDTRHGIASSGSTRYPFVPANTRASHSPSLLEPYAHSLPSSVAPVGAYPEKSSYLLSNSSNDSASRKEKPKARASTPPPLNFSRASEHRNEKGERISMINPRVVLDENGISHRSRYFIMLCDNETAIAHAKKTSIWAVKKDSSKRISDAYKKASVYFIFVAQQTYNALGYAQVVSDLNSTELPFWSDSSHAGGVRIKWIKTCNLFSAEISEIVSHMDHGSEARDGMEMMYDEGSRLCTLINYAIMKRIGRDR

binding [3]: binds
B3: Not2 (endogenous, S. pombe) (protein, UniProt P87240 1-306)
chain: MSLANRLSHLNITGGNDFKASIGPSVGRQNEATNPWSSTSHSLENSAATVVNELQTTKEQKTPEQSTTANPLFPGNDFSDFNNHKSKLLGVITGKSTPSSQAEKSDTTNSKTGSTEELTETPADENAKQYMLESLLPIIRMEDSEMSTLQLGCDLAALGFDLAPVEEDRLISTNLFSPWAELNTKKPVSQPMFKLPACYKNVNPPPAISKIFQFSDETLFYIFYTMPRDVMQEAAAQELTNRNWRFHKELRVWLTPVPGMKPLQRTPQFERGYYMFFDPIHWKRIKKDFLLMYAALEDRAQSAVHS

binding [3]: binds
B4: Not3 (endogenous, S. pombe) (protein, UniProt O13870 1-640)
chain: MSARKLQVEIEKTFKKVTDGIAIFDEVYEKLSASNSVSQKEKLEGDLKTQIKKLQRLRDQIKTWASSNDIKDKKALLENRRLIEAKMEEFKAVEREMKIKAFSKEGLSIASKLDPKEKEKQDTIQWISNAVEELERQAELIEAEAESLKATFKRGKKDLSKLSHLSELESRIERHKWHQDKLELIMRRLENSQISPEAVNDIQEDIMYYVECSQSEDFAEDENLYDELNLDEASASYDAERSGRSSSSSHSPSPSASSSSSSENLLQDKAEAEEKVSADASVQDIAEKESLDADKELATNDQEDDEEENQAETQKDGAISNNENMQSEVQTTNPSASTSAVTNITKPTLIQNPSTPLSVSNSKVASPETPNATHTAPKVEMRYASAAAAAAAALAKESPSHHYIMQQVRPETPNSPRLNSTVIQSKWDSLGHTASPKMQTQPVRSVSQSSATTETNVKPTKEENADVPVSSPDYLKDLVNALNTSKEQHKGAIDKEKLTEALNISCVYVPDATDAAKPQYYIPKDPYPVPHYYPQQPLPLFDSSEMTELVDPDTLFYMFYYRPGTYQQYIAGQELKKQSWRFHKKYTTWFQRHEEPKMITDEFESGSYRYFDFEGDWVQRKKADFRFTYQYLEDDDDWTR

binding [3]: binds
B5: Ccr4 (endogenous, S. pombe) (enzyme, UniProt O74874 1-690)
chain: MFNPRYTQGTIYPGAHPGLLTPDHQHAAILSVQNSPALENSNISEHWKQQIALATQSRSFSSPHQRAHNAAALARSGGPGFSMNYNARTGAFTGGPNAAGLSSLGGKYNTSSTTTTLTTSTTLNTSSGTTLNSTSKTTTSSVAVDDQKSKSDSKKERRDWTCLDLGGIGLRNVSTDLFKFSFLTELYINHNNLTRLPPEIGKLKNLVILDASGNSIKTIPPELGLLTELREVLLFDNMISVIPAELGTLFQLKILGIEGNPLQDVYKNQIMESGTAGLIAALRDGCPVGPPPPERGWEKLVSDDDDDVNDNVSTSVRDLTAADSNKPSTTSKNLKFTIMSYNVLCERYATSTLYGYTPSWALSWSYRKDLIMQELGGYNADIICLQEVDVENYDTFFAPQMSLKGYKGVHFPKSRVRTMNEVERRIVDGCATFFKTSKYVMHEKMVIEYNQAPSLRRQDIKLTSNMYNRVMTKDNISVITLLENKENGSRLIVANCHIHWDPQFRDVKVIQVAMLMDEIAQVATKFRNMPSKIPSDQLKDERPTYPEYLKIPILICGDFNSVQGSGVYDFLSSGSISQNHEDFMNNDYGEYTVNGRSHAFNLKSAYGESEALSFTNYTPGFKGAIDHIWYTGNSLEVTGLLKGVDKDYLSGVVGFPNAHFPSDHICLLAEFKVKQEKTPLPSSKFNNDKK

binding [3]: binds
B6: Caf1 (endogenous, S. pombe) (enzyme, UniProt O74856 1-335)
chain: MTAMNSNFSYPALGVDGISSQISPIRDVWSTNLQQEMNLIMSLIERYPVVSMDTEFPGVVARPLGVFKSSDDYHYQTLRANVDSLKIIQIGLALSDEEGNAPVEACTWQFNFTFNLQDDMYAPESIELLTKSGIDFKKHQEVGIEPADFAELLIGSGLVLQEEVTWITFHSGYDFAYLLKAMTQIPLPAEYEEFYKILCIYFPKNYDIKYIMKSVLNNSKGLQDIADDLQIHRIGPQHQAGSDALLTARIFFEIRSRYFDGSIDSRMLNQLYGLGSTGSVLWHNNSSTPQIQFRDLPGAHPSPTPSNAGIPTTLTNTSSAPNFANSTFRFPPRVV
